Measurements taken from patent US11400112B2, “Combination therapy for treatment of leukemia” (St George's Hospital Medical School, priority 2018, dated 2022).
At least one compound was matched to its structure with a doubt left.

Test system: malignant cells (NB4 naïve, NB4-EVAsR1, U937, THP-1, Kasumi, Jurkat cell lines)
Test: Apoptosis assay on leukemic cell lines (FIG. 5)
Format: cell-based
Details: 2 μM ATO, 5 μM ART, 48 hours
Procedure: In particular, the effects of Metformin, Dichloroacetate (DCA) and Artesunate (ART) in combination with arsenic trioxide were evaluated. […] Methods i) In vitro cytotoxicity assay: 10^5 cells/well were seeded in a 96 well plate and treated with increasing concentration of artesunate and arsenic trioxide and incubated for 48 hours. At the end of 48 hrs MTT was added, followed by SDS to solubilize the formazan crystals formed by the viable cells. The absorbance was measured on an ELISA plate reader SpectraMaxM4 (Molecular Devices) at a test wavelength of 570 nm and a reference wavelength of 630 nm to measure the optical density. […] An IC-50 value was generated if significant cytotoxicity was detected. […] CO2 incubator, the viability of the leukemic cells was measured using an Annexin V/7-aminoactinomycin D (7AAD) apoptosis assay kit (BD Pharmingen, San Diego, Calif., USA) as per the manufacturer's protocol. The flow cytometry data were analysed using Cell Quest pro software (BD Biosciences, San Jose, Calif., USA). iii) Measurement of Glucose Uptake: 5×10^5 cells were stained with 2-NBDG (fluorescent analogue of 2-Deoxyglucose) for 10 minutes, washed and the fluorescence measured at 485 nm/595 nm using Spectramax M4. […] The ratio of red to green fluorescence (590/530) was calculated and the Δψm of treated cells compared with the untreated cells.

Structure (SMILES): O=C(O)C(Cl)Cl [DCA, Dichloroacetate]
- effect on the malignant cells (Annexin V-/7AAD- cells): did not have a significant effect
